The supplement of paper PMC4604168 (melanoma cell lines)
Some of the results follow. Many values rest on one well or one pass, so single values are uncertain.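 The apoptosis fraction was the count of cleaved-PARP antibody-stained nuclei relative to all DNA-stained nuclei, imaged in 1,536-well plates. Screening doses were set so most cells survived, and baseline and induced cleaved-PARP levels vary greatly across cell lines.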

Key:
Experiment in all cases: cleaved PARP positive nuclei fraction relative to DMSO control; melanoma cells; higher = more apoptosis
Details in all cases: library dose: low library concentration; 72 h
MZ2-MEL = test system: MZ2-MEL
MeWo = test system: MeWo
RPMI7951 = test system: RPMI7951
RVH-421 = test system: RVH-421
SkMel28 = test system: SkMel28
SkMel2 = test system: SkMel2
SkMel30 = test system: SkMel30
SkMel5 = test system: SkMel5
UACC257 = test system: UACC257
UACC62 = test system: UACC62

| SMILES | cleaved PARP positive nuclei fraction (MZ2-MEL) | cleaved PARP positive nuclei fraction (MeWo) | cleaved PARP positive nuclei fraction (RPMI7951) | cleaved PARP positive nuclei fraction (RVH-421) | cleaved PARP positive nuclei fraction (SkMel28) | cleaved PARP positive nuclei fraction (SkMel2) | cleaved PARP positive nuclei fraction (SkMel30) | cleaved PARP positive nuclei fraction (SkMel5) | cleaved PARP positive nuclei fraction (UACC257) | cleaved PARP positive nuclei fraction (UACC62) |
| --- | --- | --- | --- | --- | --- | --- | --- | --- | --- | --- |
| CCN(CC)CCNC(=O)c1c(C)[nH]c(/C=C2\C(=O)Nc3ccc(F)cc32)c1C [sunitinib] + O=C(Nc1cccc(Cl)c1)Nc1ncc(CCNc2ncnc3ccsc23)s1 [SNS314] (first compound 0.4 µM, partner dose 0.0008 µM) | 110% | 54% | 167% | 103% | 196% | 61.2% | 41.7% | 82.8% | 1700% | 276% |
| CS(=O)(=O)c1ccc(C(=O)Nc2ccc(Cl)c(-c3ccccn3)c2)c(Cl)c1 [vismodegib] + COc1cc(Nc2ncc(F)c(Nc3ccc4c(n3)NC(=O)C(C)(C)O4)n2)cc(OC)c1OC [Tamatinib] (first compound 1 µM, partner dose 0.4 µM) | 177% | 120% | 42.3% | 82.5% | 124% | 206% | 70.5% | 37.8% | 223% | 57.4% |
| COc1ccc(C2=N[C@@H](c3ccc(Cl)cc3)[C@@H](c3ccc(Cl)cc3)N2C(=O)N2CCNC(=O)C2)c(OC(C)C)c1 [Nutlin-3] + COc1ccc(-c2ccc3c(N4CCOCC4)nc(N4C[C@@H](C)O[C@@H](C)C4)nc3n2)cc1CO [KU0063794] (first compound 0.1 µM, partner dose 0.02 µM) | 51.8% | 32% | 233% | 97.7% | 56.1% | 111% | 85.8% | 80.3% | 150% | 122% |
| CCCCCCCCc1ccc(CCC(N)(CO)CO)cc1 [fingolimod] + NCC(=O)Nc1ccc(-n2nc(C(F)(F)F)cc2-c2ccc3c(ccc4ccccc43)c2)cc1 [OSU03012] (first compound 2 µM, partner dose 1 µM) | 165% | 273% | 37.6% | 67.8% | 159% | 217% | 200% | 305% | 125% | 62.3% |
| NC(=O)c1ccc(N(C(N)=O)c2c(F)cccc2F)nc1-c1ccc(F)cc1F + NCC(=O)Nc1ccc(-n2nc(C(F)(F)F)cc2-c2ccc3c(ccc4ccccc43)c2)cc1 [OSU03012] (first compound 0.4 µM, partner dose 1 µM) | 33.5% | 112% | 171% | 79% | 131% | 35.1% | 130% | 141% | 319% | 714% |
| COc1ccc(C2=N[C@@H](c3ccc(Cl)cc3)[C@@H](c3ccc(Cl)cc3)N2C(=O)N2CCNC(=O)C2)c(OC(C)C)c1 [Nutlin-3] + OCCn1cc(-c2cnc3nnn(Cc4ccc5ncccc5c4)c3n2)cn1 [PF04217903] (first compound 0.1 µM, partner dose 1 µM) | 85.7% | 307% | 112% | 83.3% | 68.7% | 131% | 68.8% | 195% | 134% | 63.1% |
| NC(=O)c1ccc(N(C(N)=O)c2c(F)cccc2F)nc1-c1ccc(F)cc1F + Cc1cc([N+](=O)[O-])ccc1NS(=O)(=O)c1cc(Cl)ccc1Cl [FH535] (first compound 0.4 µM, partner dose 1 µM) | 90.4% | 64.6% | 28.3% | 148% | 225% | 58.9% | 780% | 80.2% | 145% | 230% |
| C[C@@H](N)c1ccc(C(=O)Nc2ccnc3[nH]ccc23)cc1 + COc1ccc(-c2ccc3c(N4CCOCC4)nc(N4C[C@@H](C)O[C@@H](C)C4)nc3n2)cc1CO [KU0063794] (first compound 0.4 µM, partner dose 0.02 µM) | 100% | 226% | 71.1% | 250% | 99.6% | 102% | 73.1% | 182% | 140% | 207% |
| C[C@@H](N)c1ccc(C(=O)Nc2ccnc3[nH]ccc23)cc1 + NCC(=O)Nc1ccc(-n2nc(C(F)(F)F)cc2-c2ccc3c(ccc4ccccc43)c2)cc1 [OSU03012] (first compound 0.4 µM, partner dose 1 µM) | 278% | 213% | 37.7% | 166% | 179% | 297% | 132% | 157% | 186% | 76.2% |
| C[C@@H](N)c1ccc(C(=O)Nc2ccnc3[nH]ccc23)cc1 + OCCn1cc(-c2cnc3nnn(Cc4ccc5ncccc5c4)c3n2)cn1 [PF04217903] (first compound 0.4 µM, partner dose 1 µM) | 120% | 273% | 144% | 298% | 109% | 51.5% | 125% | 112% | 32.1% | 205% |
| CCN(CC)CCNC(=O)c1c(C)[nH]c(/C=C2\C(=O)Nc3ccc(F)cc32)c1C [sunitinib] + COc1cc(N2CCC(N3CCN(C)CC3)CC2)ccc1Nc1ncc(Cl)c(Nc2ccccc2S(=O)(=O)C(C)C)n1 [NVP-TAE684] (first compound 0.4 µM, partner dose 0.08 µM) | 106% | 124% | 38.6% | 48.3% | 208% | 61.8% | 19.6% | 85.3% | 180% | 155% |
| NC(=O)c1ccc(N(C(N)=O)c2c(F)cccc2F)nc1-c1ccc(F)cc1F + COC(=O)c1sccc1S(=O)(=O)Nc1ccc(Nc2ccccc2)cc1OC [GSK0660] (first compound 0.4 µM, partner dose 1 µM) | 106% | 134% | 66.3% | 387% | 99.6% | 160% | 33.5% | 73.7% | 170% | 103% |
| NC(=O)c1ccc(N(C(N)=O)c2c(F)cccc2F)nc1-c1ccc(F)cc1F + CO[C@@H]1[C@H](N(C)C(=O)c2ccccc2)C[C@H]2O[C@]1(C)n1c3ccccc3c3c4c(c5c6ccccc6n2c5c31)C(=O)NC4 [Midostaurin] (first compound 0.4 µM, partner dose 0.08 µM) | 146% | 145% | 47.1% | 1130% | 82.3% | 137% | 54.4% | 79.3% | 69.1% | 47.6% |
| Cn1sc(=O)n(Cc2ccccc2)c1=O + COC(=O)c1sccc1S(=O)(=O)Nc1ccc(Nc2ccccc2)cc1OC [GSK0660] (first compound 0.4 µM, partner dose 1 µM) | 122% | 66.1% | 161% | 175% | 183% | 64.4% | 79.9% | 74% | 373% | 50.3% |
| CCCCCCCCc1ccc(CCC(N)(CO)CO)cc1 [fingolimod] + COc1ccc(-c2ccc3c(N4CCOCC4)nc(N4C[C@@H](C)O[C@@H](C)C4)nc3n2)cc1CO [KU0063794] (first compound 2 µM, partner dose 0.02 µM) | 109% | 39.1% | 190% | 40.5% | 349% | 144% | 394% | 171% | 319% | 195% |
| CC(=O)O[C@@]12CO[C@@H]1C[C@H](O)[C@@]1(C)C(=O)[C@H](O)C3=C(C)[C@@H](OC(=O)[C@H](O)[C@@H](NC(=O)OC(C)(C)C)c4ccccc4)C[C@@](O)([C@@H](OC(=O)c4ccccc4)[C@H]21)C3(C)C [Docetaxel] + O=S(=O)(c1ccccc1)N(CC(F)(F)F)c1ccc(C(O)(C(F)(F)F)C(F)(F)F)cc1 [T0901317] (first compound 0.0001 µM, partner dose 1.4 µM) | 606% | 767% | 141% | 104% | 669% | 475% | 201% | 101% | 672% | 416% |
| NC1(c2ccc(-c3nc4ccn5c(=O)[nH]nc5c4cc3-c3ccccc3)cc2)CCC1 + CCc1ccc(CCOc2ccc(CC3SC(=O)NC3=O)cc2)nc1 [pioglitazone] (first compound 0.4 µM, partner dose 2 µM) | 148% | 66.7% | 103% | 142% | 395% | 30.3% | 38.1% | 265% | 55% | 233% |
| CC1(C)CCC(c2ccc(Cl)cc2)=C(CN2CCN(c3ccc(C(=O)NS(=O)(=O)c4ccc(N[C@H](CCN5CCOCC5)CSc5ccccc5)c(S(=O)(=O)C(F)(F)F)c4)cc3)CC2)C1 + CC1(C)NC(=O)N(c2ccc([N+](=O)[O-])c(C(F)(F)F)c2)C1=O [nilutamide] (first compound 0.4 µM, partner dose 1 µM) | 302% | 166% | 73.8% | 118% | 91.9% | 119% | 92.8% | 104% | 327% | 97.4% |
| CC1(C)CCC(c2ccc(Cl)cc2)=C(CN2CCN(c3ccc(C(=O)NS(=O)(=O)c4ccc(N[C@H](CCN5CCOCC5)CSc5ccccc5)c(S(=O)(=O)C(F)(F)F)c4)cc3)CC2)C1 + O=S(=O)(c1ccccc1)N(CC(F)(F)F)c1ccc(C(O)(C(F)(F)F)C(F)(F)F)cc1 [T0901317] (first compound 0.4 µM, partner dose 1.4 µM) | 74.1% | 344% | 94.5% | 56.3% | 95.8% | 64.6% | 277% | 627% | 26% | 93.9% |
| CS(=O)(=O)c1ccc(C(=O)Nc2ccc(Cl)c(-c3ccccn3)c2)c(Cl)c1 [vismodegib] + COc1ccc(COc2ccc(Cc3cnc(N)nc3N)cc2OC)cc1 [GW2580] (first compound 1 µM, partner dose 1 µM) | 95.6% | 70.6% | 275% | 24.4% | 109% | 69.8% | 62.6% | 61% | 111% | 181% |
| Cn1sc(=O)n(Cc2ccccc2)c1=O + CC(C)(C)c1cnc(CSc2cnc(NC(=O)C3CCNCC3)s2)o1 [SNS-032] (first compound 0.4 µM, partner dose 0.01 µM) | 345% | 101% | 149% | 293% | 97.8% | 124% | 69.9% | 146% | 104% | 516% |

Copied from the entries so far (2 entries):

| SMILES | cleaved PARP positive nuclei fraction (MZ2-MEL) | cleaved PARP positive nuclei fraction (MeWo) | cleaved PARP positive nuclei fraction (RPMI7951) | cleaved PARP positive nuclei fraction (RVH-421) | cleaved PARP positive nuclei fraction (SkMel28) | cleaved PARP positive nuclei fraction (SkMel2) | cleaved PARP positive nuclei fraction (SkMel30) | cleaved PARP positive nuclei fraction (SkMel5) | cleaved PARP positive nuclei fraction (UACC257) | cleaved PARP positive nuclei fraction (UACC62) |
| --- | --- | --- | --- | --- | --- | --- | --- | --- | --- | --- |
| C[C@@H](N)c1ccc(C(=O)Nc2ccnc3[nH]ccc23)cc1 + NCC(=O)Nc1ccc(-n2nc(C(F)(F)F)cc2-c2ccc3c(ccc4ccccc43)c2)cc1 [OSU03012] (first compound 0.4 µM, partner dose 1 µM) | 278% | 213% | 37.7% | 166% | 179% | 297% | 132% | 157% | 186% | 76.2% |
| C[C@@H](N)c1ccc(C(=O)Nc2ccnc3[nH]ccc23)cc1 + OCCn1cc(-c2cnc3nnn(Cc4ccc5ncccc5c4)c3n2)cn1 [PF04217903] (first compound 0.4 µM, partner dose 1 µM) | 120% | 273% | 144% | 298% | 109% | 51.5% | 125% | 112% | 32.1% | 205% |
